This note sets out measurements from publication doi:10.1101/2024.06.25.600562.

Protein sequences, listed by entry. Tags and fused reporters are not part of them.
UniProt Q99708: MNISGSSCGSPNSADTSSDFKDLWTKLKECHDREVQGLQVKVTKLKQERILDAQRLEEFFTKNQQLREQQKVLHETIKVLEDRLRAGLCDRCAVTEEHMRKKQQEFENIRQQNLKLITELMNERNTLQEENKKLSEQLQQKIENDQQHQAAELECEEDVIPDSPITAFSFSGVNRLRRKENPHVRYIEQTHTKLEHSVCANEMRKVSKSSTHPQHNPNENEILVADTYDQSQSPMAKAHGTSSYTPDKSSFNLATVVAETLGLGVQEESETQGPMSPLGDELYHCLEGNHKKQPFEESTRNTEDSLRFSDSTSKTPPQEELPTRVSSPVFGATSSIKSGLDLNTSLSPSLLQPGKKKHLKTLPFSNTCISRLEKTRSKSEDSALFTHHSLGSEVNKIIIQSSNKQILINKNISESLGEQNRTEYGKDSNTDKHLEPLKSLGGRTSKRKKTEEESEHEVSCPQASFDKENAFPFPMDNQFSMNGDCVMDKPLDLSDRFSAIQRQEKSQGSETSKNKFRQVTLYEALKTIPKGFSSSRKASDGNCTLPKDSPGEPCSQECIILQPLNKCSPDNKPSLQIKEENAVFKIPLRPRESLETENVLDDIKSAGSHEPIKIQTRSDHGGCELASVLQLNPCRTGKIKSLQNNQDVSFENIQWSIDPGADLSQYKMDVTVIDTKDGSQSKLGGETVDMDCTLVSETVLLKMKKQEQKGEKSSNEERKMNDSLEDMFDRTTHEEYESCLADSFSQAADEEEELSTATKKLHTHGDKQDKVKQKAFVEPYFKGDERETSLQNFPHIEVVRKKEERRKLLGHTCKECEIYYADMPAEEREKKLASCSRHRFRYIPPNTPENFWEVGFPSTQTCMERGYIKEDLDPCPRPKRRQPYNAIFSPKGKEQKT
UniProt Q16539: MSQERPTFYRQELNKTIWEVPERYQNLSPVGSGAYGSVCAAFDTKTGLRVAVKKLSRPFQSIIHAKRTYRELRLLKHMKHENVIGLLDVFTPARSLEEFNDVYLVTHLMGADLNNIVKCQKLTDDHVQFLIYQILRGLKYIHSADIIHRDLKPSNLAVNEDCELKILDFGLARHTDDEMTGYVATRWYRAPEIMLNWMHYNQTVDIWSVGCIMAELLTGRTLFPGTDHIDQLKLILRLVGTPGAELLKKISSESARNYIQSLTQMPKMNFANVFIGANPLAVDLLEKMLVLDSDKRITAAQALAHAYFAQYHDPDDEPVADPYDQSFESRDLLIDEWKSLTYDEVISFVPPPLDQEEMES

These are yes or no findings as the source states them, for the method shown. Binding seen in cells or lysates may run through a third protein. Some results given as binding are weak or reduced against the parent protein; the word gives no strength.

The experiment has as its target endogenous CtIP (human (endogenous in HEK293T)) (UniProt Q99708). The experiment in a line: co-IP.

With “Myc-p38α (from UniProt Q16539 1-360) (enzyme)”, the binding result is listed as “binds”.
